One molecule from patent US20220119522A1 can be followed below.

Results are given in words; binding and its absence hold for the method and conditions named. Some binding calls cover weakened binding; strength is not graded here.

Experiment [1] has as its target T1, human soluble TREM2 (sTREM2) (human) (UniProt Q9NZC2).
T1 sequence: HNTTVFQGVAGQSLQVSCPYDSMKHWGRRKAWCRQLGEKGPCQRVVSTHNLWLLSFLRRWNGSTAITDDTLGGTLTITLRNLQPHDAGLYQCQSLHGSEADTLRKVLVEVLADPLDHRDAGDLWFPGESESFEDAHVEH
The experiment is described as follows: MSD immunoassay of antibody-bound sTREM2 in plasma of huTrem2 KI/KI mice 24 h after 100 mg/kg i.v., anti-TREM2 capture (MAB17291), sulfo-tagged anti-human detection, normalised to the pre-dose baseline.

Experiment [2] has as its target T1, human soluble TREM2 (sTREM2) (human). Description: MSD assay of antibody-bound sTREM2 in plasma of huTrem2 KI mice 24 hours after 100 mg/kg.

B1: CL0020141 (antibody, V domains shown)
VH: EVTLVESGGGLVQPGGSLRLSCATSGFTFTDYYMSWVRQPPGKALEWLGFIRDKANGYTTDYSASVKGRFTISRDNSQNILYLQMNTLRAEDSATYYCSRLLRAQGFAYWGQGTLVTVSA
VL: DIVMSQSPSSLGVSIGEKVIMSCTSGQSLLYSNNQKNYLAWYQQKPGQSPKLLIYWASTRESGVPDRFTGSGSGTDFTLTINSVKAEDLAVYYCQQYYRNPFTFGSGTKLEIK
In the case of B1, the binding result in experiment [1] and in experiment [2] was “binds” throughout.
